Reference: PubChem BioAssay AID1259308 (NCATS, 2017)
Aim: 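Genes whose loss raises luciferase production in HEK293 cells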 (primary screen). Cell system: human HEK293 embryonic kidney cells stably expressing firefly luciferase (HEK-CMV-Luc2-Hygro). Reagent: single siRNA against human genes, 0.8 pmol siRNA per well. Duration: 72 h. Measurement: 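Reporter luminescence and viable-cell signal on separate replicate plates, given as percent of non-targeting control and median/MAD z-scores, plus per-cell luciferase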. Scale: total luciferase, z-score: higher = more reporter protein produced. Call rule: 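An siRNA counts as active if its total luciferase robust z-score exceeds 3; genes with two or more such siRNAs out of three were retested with fresh siRNAs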. Meaning of the calls: active = raised luciferase; inactive = no rise.
Shown is a random part of about 59,000 reagents. About 1,510 of them (2.6%) were called active. 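Calls use total luciferase alone and ignore viability, so some active siRNAs may act by altering cell number.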 The numbers tell different reagents against one gene apart. Further read-outs or replicates are left out here. Reagent sequences are not shown.

Silencing of CHRNA7 (GeneID 1139) #1 came out at: total luciferase, z-score -1.2; inactive.
For CHRNA7 (GeneID 1139) #2 the deposit lists total luciferase, z-score -1.34; inactive.
After knock-down of CHRNA7 (GeneID 1139) #3, the screen gave total luciferase, z-score 0.938; inactive.
Silencing of TMEM14EP (GeneID 645843) #1 came out at: total luciferase, z-score -1.35; inactive.
After knock-down of TMEM14EP (GeneID 645843) #2 the results were total luciferase, z-score -1.26; inactive.
Depletion of TMEM14EP (GeneID 645843) #3 came out at: total luciferase, z-score -0.268; inactive.

Part of the list above in another layout.
Target gene	siRNA no.	total luciferase, z-score	Outcome
CHRNA7 (GeneID 1139)	2	-1.34	inactive
CHRNA7 (GeneID 1139)	3	0.938	inactive

Further records follow:
Against SLN (GeneID 6588) #1, the values are total luciferase, z-score 1.25; inactive.
SLN (GeneID 6588) #2 scored total luciferase, z-score 1.81; inactive.
For SLN (GeneID 6588) #3, the values are total luciferase, z-score 0.284; inactive.
Knock-down of FGF16 (GeneID 8823) #1 came out at: total luciferase, z-score -0.144; inactive.
With knock-down of FGF16 (GeneID 8823) #2 the results were total luciferase, z-score 3.01; active.
For FGF16 (GeneID 8823) #3 the deposit lists total luciferase, z-score -0.219; inactive.
